Results are given in words; binding and its absence hold for the method and conditions named. Binding calls can cover weak binding; strength is not graded here. For some assays here: In cells and extracts the contact can be indirect.
Columns and labels:
[1] = biological target: T1, DL (DROOPING LEAF) (rice (Oryza sativa)) (UniProt Q76EJ0); experiment: two-hybrid; OsYABBYs as bait in pGBKT7, OsWOX3A or OsWUS as prey in pGADT7; yeast AH109; growth on SD/-Leu/-Trp/-His/-Ade medium
T1 sequence: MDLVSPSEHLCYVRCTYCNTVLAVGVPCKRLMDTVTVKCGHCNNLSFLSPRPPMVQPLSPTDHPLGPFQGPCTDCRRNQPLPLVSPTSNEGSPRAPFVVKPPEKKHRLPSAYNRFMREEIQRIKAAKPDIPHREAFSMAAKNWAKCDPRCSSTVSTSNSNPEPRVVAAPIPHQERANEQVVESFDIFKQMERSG

[2] = biological target: T2, OsYABBY1 (rice (Oryza sativa)) (UniProt Q7XIM7); experiment: as above
T2 sequence: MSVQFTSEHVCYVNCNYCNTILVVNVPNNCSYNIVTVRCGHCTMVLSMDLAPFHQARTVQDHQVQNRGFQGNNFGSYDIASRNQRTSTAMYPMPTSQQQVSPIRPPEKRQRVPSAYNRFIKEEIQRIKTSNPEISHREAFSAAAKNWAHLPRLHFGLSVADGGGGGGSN

[3] = biological target: T3, OsYABBY2 (rice (Oryza sativa)) (UniProt Q10FZ7); experiment: as above
T3 sequence: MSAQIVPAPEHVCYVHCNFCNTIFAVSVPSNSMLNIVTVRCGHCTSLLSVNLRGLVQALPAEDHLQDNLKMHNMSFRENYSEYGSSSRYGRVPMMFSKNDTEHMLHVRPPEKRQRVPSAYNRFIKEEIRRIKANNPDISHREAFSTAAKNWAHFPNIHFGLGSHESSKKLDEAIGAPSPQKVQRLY

[4] = biological target: T4, OsYABBY3 (rice (Oryza sativa)) (UniProt Q8L556); experiment: as above
T4 sequence: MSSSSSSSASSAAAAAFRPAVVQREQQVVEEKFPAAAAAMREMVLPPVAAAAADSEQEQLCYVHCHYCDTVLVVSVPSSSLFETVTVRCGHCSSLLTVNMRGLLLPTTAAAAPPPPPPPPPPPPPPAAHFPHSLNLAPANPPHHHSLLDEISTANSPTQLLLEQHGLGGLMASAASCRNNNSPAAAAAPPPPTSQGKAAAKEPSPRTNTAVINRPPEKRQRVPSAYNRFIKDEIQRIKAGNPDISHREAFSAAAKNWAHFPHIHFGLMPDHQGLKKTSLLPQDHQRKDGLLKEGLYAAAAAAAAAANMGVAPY

[5] = biological target: T5, OsYABBY4 (rice (Oryza sativa)) (UniProt Q6H668); experiment: as above
T5 sequence: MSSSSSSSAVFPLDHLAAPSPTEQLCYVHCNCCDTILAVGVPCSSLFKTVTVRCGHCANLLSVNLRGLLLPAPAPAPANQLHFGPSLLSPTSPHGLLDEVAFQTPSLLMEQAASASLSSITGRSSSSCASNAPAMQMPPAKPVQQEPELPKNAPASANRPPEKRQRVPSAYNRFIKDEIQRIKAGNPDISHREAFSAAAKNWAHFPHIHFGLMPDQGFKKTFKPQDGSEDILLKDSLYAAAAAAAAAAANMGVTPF

[6] = biological target: T6, OsYABBY5 (rice (Oryza sativa)) (UniProt Q0JBF0); experiment: as above
T6 sequence: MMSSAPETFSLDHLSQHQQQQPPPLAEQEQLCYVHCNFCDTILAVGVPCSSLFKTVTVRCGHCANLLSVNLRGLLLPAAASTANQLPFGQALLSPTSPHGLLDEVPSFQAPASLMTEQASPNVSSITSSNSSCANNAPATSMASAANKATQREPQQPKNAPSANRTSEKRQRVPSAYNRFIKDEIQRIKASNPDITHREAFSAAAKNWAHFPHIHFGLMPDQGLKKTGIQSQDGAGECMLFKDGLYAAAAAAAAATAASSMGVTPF

[7] = biological target: T7, OsYABBY6 (rice (Oryza sativa)) (UniProt Q2QM17); experiment: as above
T7 sequence: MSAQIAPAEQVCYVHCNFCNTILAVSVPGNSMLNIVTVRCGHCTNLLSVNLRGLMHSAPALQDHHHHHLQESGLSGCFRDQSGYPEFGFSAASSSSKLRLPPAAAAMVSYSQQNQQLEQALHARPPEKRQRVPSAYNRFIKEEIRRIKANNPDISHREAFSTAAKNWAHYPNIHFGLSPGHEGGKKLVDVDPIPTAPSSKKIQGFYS

[8] = biological target: T1, DL (DROOPING LEAF) (rice (Oryza sativa)); experiment: split reporter; luciferase complementation imaging (LCI): OsYABBY in the N-luc vector, partner in the C-luc vector, expressed together in Nicotiana benthamiana; bioluminescence detected by Tanon5200
[9] = biological target: T2, OsYABBY1 (rice (Oryza sativa)); experiment: as above
[10] = biological target: T3, OsYABBY2 (rice (Oryza sativa)); experiment: as above
[11] = biological target: T4, OsYABBY3 (rice (Oryza sativa)); experiment: as above
[12] = biological target: T5, OsYABBY4 (rice (Oryza sativa)); experiment: as above
[13] = biological target: T6, OsYABBY5 (rice (Oryza sativa)); experiment: as above
[14] = biological target: T7, OsYABBY6 (rice (Oryza sativa)); experiment: as above

binding [1]: binds weakly
binding [2]: binds
binding [3]: binds
binding [4]: binds
binding [5]: binds
binding [6]: binds
binding [7]: binds
binding [8]: binds weakly
binding [9]: binds
binding [10]: binds
binding [11]: binds
binding [12]: binds
binding [13]: binds
binding [14]: binds
Substance: OsWOX3A (rice (Oryza sativa))

Reference: article PMC9969854
